The source of these data is paper PMC7840056.

These are yes or no findings as the source states them, for the method shown. For some assays here: Binding calls can cover weak binding; strength is not graded here. Where a sequence is shown, tags or fusion partners need not be part of it.

Holding throughout (assay): two-hybrid; Bacterial Adenylate Cyclase Two-Hybrid (BACTH) in E. coli BTH101; SlyD fused to T25, Niu proteins fused to T18 (pUT18); LB with IPTG 10^-3 M overnight at 30°C; ß-galactosidase activity in Miller units
Assay [1] concerns the target NiuDΔ10, C-terminally truncated NiuD fused to the T18 fragment (Helicobacter pylori (strain B128)).
The target of assay [2] is NiuDΔ11, C-terminally truncated NiuD fused to the T18 fragment (Helicobacter pylori (strain B128)).
Assay [3] concerns the target NiuDΔ12, C-terminally truncated NiuD fused to the T18 fragment (Helicobacter pylori (strain B128)).
The target in assay [4] is NiuDΔ4, C-terminally truncated NiuD fused to the T18 fragment (Helicobacter pylori (strain B128)).
Assay [5] deals with NiuDΔ5, C-terminally truncated NiuD fused to the T18 fragment (Helicobacter pylori (strain B128)).
Assay [6] has as its target NiuDΔ6, C-terminally truncated NiuD fused to the T18 fragment (Helicobacter pylori (strain B128)).
Assay [7] deals with NiuDΔ7 Arg208 to Gln, fused to the T18 fragment (Helicobacter pylori (strain B128)).
Assay [8] deals with NiuDΔ7 Arg210 to Gly, fused to the T18 fragment (Helicobacter pylori (strain B128)).
Assay [9] concerns the target NiuDΔ7 Pro203 to Val, fused to the T18 fragment (Helicobacter pylori (strain B128)).
Assay [10] concerns the target NiuDΔ7 Trp209 to Gly, fused to the T18 fragment (Helicobacter pylori (strain B128)).
Assay [11] deals with NiuDΔ7 Trp209 to Phe, fused to the T18 fragment (Helicobacter pylori (strain B128)).
Assay [12] has as its target NiuDΔ7, C-terminally truncated NiuD fused to the T18 fragment (Helicobacter pylori (strain B128)).
The target of assay [13] is NiuDΔ8, C-terminally truncated NiuD fused to the T18 fragment (Helicobacter pylori (strain B128)).
Assay [14] has as its target NiuDΔ9, C-terminally truncated NiuD fused to the T18 fragment (Helicobacter pylori (strain B128)).

B1: SlyD wild type fused to the T25 fragment of Bordetella pertussis adenylate cyclase (pNKT25) (protein, UniProt O25748 1-185)
chain: MQNHDLESIKQAALIEYEVREQGSSIVLDSNISKEPLEFIIGTNQIIAGLEKAVLKAQIGEWEEVVIAPEEAYGVYESSYLQEVPRDQFEGIELEKGMSVFGQTEDNQTIQAIIKDFSATHVMVDYNHPLAGKTLAFRFKVLGFREVSEEEILASHHGGGTGCCGGHGGHGGKKGGGCGCSCSHG
In the case of B1, the binding entry is “no binding” in assay [1]; “no binding” in assay [2]; “no binding” in [3]; “binds” in [4]; “binds” in assay [5]; “binds” in assay [6]. In addition, the binding result is on record as “no binding” in assay [7]; “no binding” in assay [8]; “binds” in [9]; “binds” in assay [10]; “binds” in assay [11]; “binds” in assay [12]. In addition, the binding entry in assay [13] and in assay [14] was “binds” in each case.
